Experimental data: paper PMC11082240
These are yes or no findings as the source states them, for the method shown. Binding seen in cells or lysates may run through a third protein. Some binding calls cover weakened binding; strength is not graded here.

By UniProt entry, the sequences of proteins in these tests, tags left out. Where a name states a change or a piece, a line headed by the entry shows the natural chain unless it says otherwise.
UniProt P05555: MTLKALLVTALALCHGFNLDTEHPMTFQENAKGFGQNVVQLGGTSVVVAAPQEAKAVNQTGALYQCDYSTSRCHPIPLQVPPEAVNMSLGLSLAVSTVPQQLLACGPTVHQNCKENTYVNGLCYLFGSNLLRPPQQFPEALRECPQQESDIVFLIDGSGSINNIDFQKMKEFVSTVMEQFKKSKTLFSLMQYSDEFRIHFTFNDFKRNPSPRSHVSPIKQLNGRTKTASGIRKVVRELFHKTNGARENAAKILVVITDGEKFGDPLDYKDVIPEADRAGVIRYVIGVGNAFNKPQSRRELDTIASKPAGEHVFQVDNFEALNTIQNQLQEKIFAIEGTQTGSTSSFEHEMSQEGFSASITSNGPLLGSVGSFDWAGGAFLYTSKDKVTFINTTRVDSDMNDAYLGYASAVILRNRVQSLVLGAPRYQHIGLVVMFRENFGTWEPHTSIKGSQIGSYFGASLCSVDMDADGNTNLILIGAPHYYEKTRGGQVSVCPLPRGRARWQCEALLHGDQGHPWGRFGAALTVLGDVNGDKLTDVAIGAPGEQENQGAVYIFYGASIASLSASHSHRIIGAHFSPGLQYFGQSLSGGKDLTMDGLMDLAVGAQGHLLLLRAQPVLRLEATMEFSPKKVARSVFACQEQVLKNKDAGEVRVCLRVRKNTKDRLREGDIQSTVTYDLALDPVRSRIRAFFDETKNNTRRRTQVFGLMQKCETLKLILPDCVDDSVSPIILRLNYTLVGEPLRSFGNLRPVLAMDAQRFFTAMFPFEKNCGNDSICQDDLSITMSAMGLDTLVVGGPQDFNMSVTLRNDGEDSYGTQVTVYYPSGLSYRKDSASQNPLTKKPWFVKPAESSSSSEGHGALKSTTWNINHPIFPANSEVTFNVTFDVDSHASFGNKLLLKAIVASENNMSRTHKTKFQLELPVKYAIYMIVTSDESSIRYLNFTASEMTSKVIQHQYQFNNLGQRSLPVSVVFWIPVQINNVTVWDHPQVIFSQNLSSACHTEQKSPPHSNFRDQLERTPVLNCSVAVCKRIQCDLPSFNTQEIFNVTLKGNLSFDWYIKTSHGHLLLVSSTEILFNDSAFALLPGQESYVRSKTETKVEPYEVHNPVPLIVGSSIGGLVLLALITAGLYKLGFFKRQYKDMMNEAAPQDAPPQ

Molecular target: Als3 on the surface of C. albicans hyphae (WT strain SN250 and the als3^Δ/Δ::ALS3 complemented strain) (C. albicans) (UniProt Q59L12)
Assay: cross-linking + pull-down; mouse iBMDM cells incubated with hyphae 45 min 37 °C in RPMI, DSP 1.5 mM 30 min, lysis in TBS 1% β-OG 1% BSA, hyphae washed 6 times, hypha-bound CD18 blotted

## macrophage CR3 (CD11b/CD18), endogenous in mouse immortalized bone marrow-derived macrophages (iBMDM) (from UniProt P05555 17-1153; P11835 24-771) (complex)
  binding: binds
